According to patent US20100247579A1, “THERAPEUTIC AGENT FOR CANCER” (priority 2007, published 2010):
Read-outs that look alike come from different tables or passages of the source.

Tests used:
[1] = test system: lymphocytes derived from cancer patient No. PT009 expanded with OKT3 and CH-296; test: Resistance to anticancer agents, WST-1 GI50 on cultured lymphocytes of cancer patient No. PT009; assay type: cell-based; conditions: Homo sapiens, Lymphocyte, day 10 of culture with OKT3 and CH-296, 20 hours with drug
Protocol: After that, the suspension was stained by the trypan blue staining method to calculate the viable cell count, and then subjected to each experiment.
(§1) On the other hand, the IL-2/5HRPMI was added to the control group in 50 μL/well each.
(§2) These culture plates were incubated at 37° C. for 20 hours in the presence of 5% CO2. After the incubation, WST-1 (Premix WST-1 Cell Proliferation Assay System, manufactured by Takara Bio Inc.) was added in 20 μL/well each to each well of the plate, and incubated in the presence of 5% CO2 at 37° C. for 4 hours. The plates after the incubation were centrifuged at 500×g at room temperature for 5 minutes. After the centrifugation, 100 μL of the supernatant was collected from each well, and the absorbance was measured at an absorption wavelength of 450 nm and a control wavelength of 630 nm [hereinafter referred to as the absorbance (450 nm-630 nm)] using a microplate reader (manufactured by Bio-Rad Laboratories, Inc., Model Number 680XR), and then the specific absorbance (450 nm-630 nm) was calculated according to the following formula.
(§3) Specific absorbance (450 nm-630 nm)=Absorbance of Test Cell Addition Group (450 nm-630 nm)−Absorbance of Control Group (450 nm-630 nm) Formula 2: […]

[2] = test system: expanded lymphocytes derived from a human healthy donor; test: Resistance to anticancer agents, WST-1 GI50 on cultured lymphocytes of a human healthy donor; assay type: cell-based; conditions: Lymphocyte
Protocol: as §1, §2, §3
Here, a group where only OKT3 was immobilized to the culture equipment in the expansion of the lymphocytes was also set.
However, in the case of paclitaxel, a human AB type serum was used as a solvent for dilution, and for other drugs, 5HRPMI was used for dilution.

C[C@@H]1C[C@H]2[C@@H]3CCC4=CC(=O)C=C[C@]4(C)[C@@]3(F)[C@@H](O)C[C@]2(C)[C@@]1(O)C(=O)COP(=O)(O)O [Dexamethasone Sodium Phosphate, dexamethasone sodium phosphate]
GI50 [1]: 38.9 µg/mL | GI50 ([2]; healthy donor lymphocytes expanded with OKT3 + CH-296, read-out: GI50 (μg/mL) Initial Stimulation OKT3 + CH-296): 119 µg/mL | GI50 ([2]; healthy donor lymphocytes expanded with OKT3 alone, read-out: GI50 (μg/mL) Initial Stimulation OKT3): 86.3 µg/mL
